Sequences and labels used below:
T1: E3 ubiquitin-protein ligase Midline-1 (UniProt O15344)
T1 sequence: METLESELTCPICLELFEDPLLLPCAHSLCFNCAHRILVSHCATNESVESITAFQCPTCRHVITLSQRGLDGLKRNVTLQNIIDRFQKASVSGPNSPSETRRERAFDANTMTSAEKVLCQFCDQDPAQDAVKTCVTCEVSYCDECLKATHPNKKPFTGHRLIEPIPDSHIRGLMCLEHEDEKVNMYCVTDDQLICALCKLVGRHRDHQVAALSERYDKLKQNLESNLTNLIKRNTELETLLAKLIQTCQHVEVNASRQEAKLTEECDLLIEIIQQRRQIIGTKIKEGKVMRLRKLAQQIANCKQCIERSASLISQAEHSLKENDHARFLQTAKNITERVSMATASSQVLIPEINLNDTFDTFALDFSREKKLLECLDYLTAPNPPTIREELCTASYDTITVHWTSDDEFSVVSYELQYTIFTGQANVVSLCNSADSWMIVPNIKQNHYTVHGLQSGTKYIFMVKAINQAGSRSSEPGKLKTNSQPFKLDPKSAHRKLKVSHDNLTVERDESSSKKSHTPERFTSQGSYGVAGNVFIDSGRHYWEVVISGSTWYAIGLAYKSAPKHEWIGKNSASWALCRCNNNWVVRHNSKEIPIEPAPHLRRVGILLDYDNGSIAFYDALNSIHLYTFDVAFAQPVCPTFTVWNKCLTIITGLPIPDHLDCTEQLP

B1: Transmembrane protein 33 (protein, UniProt P57088 1-247)
chain: MADTTPNGPQGAGAVQFMMTNKLDTAMWLSRLFTVYCSALFVLPLLGLHEAASFYQRALLANALTSALRLHQRLPHFQLSRAFLAQALLEDSCHYLLYSLIFVNSYPVTMSIFPVLLFSLLHAATYTKKVLDARGSNSLPLLRSVLDKLSANQQNILKFIACNEIFLMPATVFMLFSGQGSLLQPFIYYRFLTLRYSSRRNPYCRTLFNELRIVVEHIIMKPACPLFVRRLCLQSIAFISRLAPTVP
B2: Tropomodulin-3 (protein, UniProt Q9NYL9 1-352)
chain: MALPFRKDLEKYKDLDEDELLGNLSETELKQLETVLDDLDPENALLPAGFRQKNQTSKSTTGPFDREHLLSYLEKEALEHKDREDYVPYTGEKKGKIFIPKQKPVQTFTEEKVSLDPELEEALTSASDTELCDLAAILGMHNLITNTKFCNIMGSSNGVDQEHFSNVVKGEKILPVFDEPPNPTNVEESLKRTKENDAHLVEVNLNNIKNIPIPTLKDFAKALETNTHVKCFSLAATRSNDPVATAFAEMLKVNKTLKSLNVESNFITGVGILALIDALRDNETLAELKIDNQRQQLGTAVELEMAKMLEENTNILKFGYQFTQQGPRTRAANAITKNNDLVRKRRVEGDHQ
B3: TRMT1-like protein (protein, UniProt Q7Z2T5 1-733)
chain: MENMAEEELLPLEKEEVEVAQVQVPTPARDSAGVPAPAPDSALDSAPTPASAPAPAPALAQAPALSPSLASAPEEAKSKRHISIQRQLADLENLAFVTDGNFDSASSLNSDNLDAGNRQACPLCPKEKFRACNSHKLRRHLQNLHWKVSVEFEGYRMCICHLPCRPVKPNIIGEQITSKMGAHYHCIICSATITRRTDMLGHVRRHMNKGETKSSYIAASTAKPPKEILKEADTDVQVCPNYSIPQKTDSYFNPKMKLNRQLIFCTLAALAEERKPLECLDAFGATGIMGLQWAKHLGNAVKVTINDLNENSVTLIQENCHLNKLKVVVDSKEKEKSDDILEEGEKNLGNIKVTKMDANVLMHLRSFDFIHLDPFGTSVNYLDSAFRNIRNLGIVSVTSTDISSLYAKAQHVARRHYGCNIVRTEYYKELAARIVVAAVARAAARCNKGIEVLFAVALEHFVLVVVRVLRGPTSADETAKKIQYLIHCQWCEERIFQKDGNMVEENPYRQLPCNCHGSMPGKTAIELGPLWSSSLFNTGFLKRMLFESLHHGLDDIQTLIKTLIFESECTPQSQFSIHASSNVNKQEENGVFIKTTDDTTTDNYIAQGKRKSNEMITNLGKKQKTDVSTEHPPFYYNIHRHSIKGMNMPKLKKFLCYLSQAGFRVSRTHFDPMGVRTDAPLMQFKSILLKYSTPTYTGGQSESHVQSASEDTVTERVEMSVNDKAEASGCRRW
B4: Testis-expressed sequence 10 protein (protein, UniProt Q9NXF1 1-929)
chain: MTKKRKRQHDFQKVKLKVGKKKPKLQNATPTNFKTKTIHLPEQLKEDGTLPTNNRKLNIKDLLSQMHHYNAGVKQSALLGLKDLLSQYPFIIDAHLSNILSEVTAVFTDKDANVRLAAVQLLQFLAPKIRAEQISPFFPLVSAHLSSAMTHITEGIQEDSLKVLDILLEQYPALITGRSSILLKNFVELISHQQLSKGLINRDRSQSWILSVNPNRRLTSQQWRLKVLVRLSKFLQALADGSSRLRESEGLQEQKENPHATSNSIFINWKEHANDQQHIQVYENGGSQPNVSSQFRLRYLVGGLSGVDEGLSSTENLKGFIEIIIPLLIECWVEAVPPQLATPVGNGIEREPLQVMQQVLNIISLLWKLSKQQDETHKLESWLRKNYLIDFKHHFMSRFPYVLKEITKHKRKEPNKSIKHCTVLSNNIDHLLLNLTLSDIMVSLANASTLQKDCSWIEMIRKFVTETLEDGSRLNSKQLNRLLGVSWRLMQIQPNREDTETLIKAVYTLYQQRGLILPVRTLLLKFFSKIYQTEELRSCRFRYRSKVLSRWLAGLPLQLAHLGSRNPELSTQLIDIIHTAAARANKELLKSLQATALRIYDPQEGAVVVLPADSQQRLVQLVYFLPSLPADLLSRLSRCCIMGRLSSSLAAMLIGILHMRSSFSGWKYSAKDWLMSDVDYFSFLFSTLTGFSKEELTWLQSLRGVPHVIQTQLSPVLLYLTDLDQFLHHWDVTEAVFHSLLVIPARSQNFDILQSAISKHLVGLTVIPDSTAGCVFGVICKLLDHTCVVSETLLPFLASCCYSLLYFLLTIEKGEAEHLRKRDKLWGVCVSILALLPRVLRLMLQSLRVNRVGPEELPVVGQLLRLLLQHAPLRTHMLTNAILVQQIIKNITTLKSGSVQEQWLTDLHYCFNVYITGHPQGPSALATVY

Results are given in words; binding and its absence hold for the method and conditions named. Binding seen in cells or lysates may run through a third protein. These calls come from enrichment with a bait or labelling near it, and not all partners need be listed.

The target of the assay is T1, E3 ubiquitin-protein ligase Midline-1. In words: affinity purification with mass spectrometry; MID1-FLAG expressed in HEK293T, lysate in TKM buffer (20 mM Tris pH 7.4, 100 mM KCl, 5 mM MgCl2, 0.5% NP40, 1 mM DTT), anti-FLAG M1 agarose overnight at 4 °C, 6 washes; untransfected cells as control; Q-Exactive, MaxQuant, 1% FDR.
Take B1: the binding result was “binds”.

For B2, the binding entry was “binds”. As to B3, the binding result is “binds”. Under B4 stands “binds”.

The values above are taken from paper PMC5841321.
